For one molecule, binding results are on record in article doi:10.1101/490615.

The experiment concerns the target T1, GFP-Klp10A (Drosophila) (UniProt Q960Z0).
T1 sequence: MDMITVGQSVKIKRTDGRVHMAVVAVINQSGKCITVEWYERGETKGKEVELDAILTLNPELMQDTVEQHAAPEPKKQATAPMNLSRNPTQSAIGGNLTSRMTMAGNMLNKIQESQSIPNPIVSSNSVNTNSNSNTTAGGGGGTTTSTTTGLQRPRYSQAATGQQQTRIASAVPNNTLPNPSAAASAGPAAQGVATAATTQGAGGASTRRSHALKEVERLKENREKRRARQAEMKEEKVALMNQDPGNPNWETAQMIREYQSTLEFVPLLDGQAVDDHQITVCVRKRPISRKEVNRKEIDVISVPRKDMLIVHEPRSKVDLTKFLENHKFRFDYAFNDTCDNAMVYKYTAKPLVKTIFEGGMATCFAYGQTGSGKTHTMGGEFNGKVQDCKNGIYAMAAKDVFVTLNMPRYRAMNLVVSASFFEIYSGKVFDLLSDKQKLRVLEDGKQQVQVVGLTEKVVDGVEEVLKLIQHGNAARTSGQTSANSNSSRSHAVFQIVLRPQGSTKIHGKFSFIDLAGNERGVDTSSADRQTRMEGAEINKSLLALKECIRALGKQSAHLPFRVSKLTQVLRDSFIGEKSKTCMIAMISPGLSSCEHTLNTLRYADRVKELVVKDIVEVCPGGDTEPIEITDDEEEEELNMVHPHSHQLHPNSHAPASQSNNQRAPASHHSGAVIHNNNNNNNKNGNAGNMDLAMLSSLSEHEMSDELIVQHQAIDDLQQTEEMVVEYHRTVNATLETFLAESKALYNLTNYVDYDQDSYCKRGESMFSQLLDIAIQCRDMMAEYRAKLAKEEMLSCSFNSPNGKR
Description: co-IP.

These are yes or no findings as the source states them, for the method shown. Binding seen in cells or lysates may run through a third protein. Some results given as binding are weak or reduced against the parent protein; the word gives no strength. Sequences can lack the tags named with a protein.

B1: Alms1a (protein, UniProt Q5BI31 1-1322)
chain: MRAKRGAVGKVMMSGSRHNKLAESSRVPPLAREYISAMATDRELDRFMALSSTASSGASGSTHSCALGSVPPPGCASMEHESRPESGHRRRTKSSDHRSPDERGEAKEQLRELSVSPPPSKHKISQFTSPKSEVTKTKPNEYTIIPIVLASSPSFRSVAVTQTMSQSAEDIRTPTKSPQMQNKKTQTPESVLKSHKRLEWDPSADVGYCKRAMSMSNISTLERSVLEDCSWRQPTQQRPEANLDGVQPLLAEEPSPMLDKPTPPLACSTFVNRSERTKSLNSGMESSLSSNKGDPRKKCQRKSRRQDSEVSSCQTDCRSSSQKESTQGSSEAKDIRGNFTTEGTQCSYNRNDTEIDSIMEEEESIDRRKKDDLRISSRVQDPQISSRRPSVSSSRRESLSSYRRDDSRLNSPNSSRLGSEVSSRVESSRSSSRRESQTNSVYGSLSASSFDYHMHMAQEVEVLKHNQRRQQEMEVEPKKQLEKEQHQNDMQQGEPKGRELKDKNHHSGREQQEIQPLMRDQRKAEQRHEKDHQLEREQQGIQQLSKGQRKAKKREKEREQERQYTAAQFEKIRSNRRHVNKENQKPENPVVNPSTGVTASTSTTSLDVGSGSRPGGELDLGIDLLCSLVKSRSLSQGQKKKLVRDIARRISCLELTESSTSSRSLSSSSKEQLKVPTGSLQQVAATNTNQSNARSSSKAERIAPPVPAPRKRAAIGSSSPLPESVSYSGSTSGSGEVITQKTNIPNRNASTDADIEPLDLQDWLNPMTLSEIEFEERLKGGTDSERRRQLHWVKTEINRMQEFKNLLENISLPSKSQKKANTESATAAQIPSSMRCMGDQKERPDKEYLLRQEMSAEAESKEMENSETTTTPPPPVRIESVGVNVTNSDPSTLPAPPPTQPPPPPPHLNQRNLQNRKKMATPLLVSGSSTSGGGRSESVCSFVQQRQRQFREHYQNQQQQQFVLLQQQKLYQLQKQLNQQKDILIQRQQHCGQCAQCGHQRTCIHQQNCPRRQQEAEEQPDEREQYMQMQYAQAAGSAYATPHQSGSSGADKNEAIYYQVVNSQGVASYVQATMVSTETQNEASATGGAGGSAITRSTTTTTNSSSSMMCISSDMSVPMGMMNTCETTTTTTTHQYDDVACQRVRRGHKETTMNAESMQRQTLQVRPRAISYVIQFTPTGSSEVIEKPPSLQDQLQLARPEFCANAKQRKAILNEMQMIRNARRQELDNVLSQSTSMEALNRHLEQLPPPANTRVRLFTTREMKAITSKRCKNLPEVLAAQSRQEEEQRRRSNRLMRDVFNKRLKSRVASGQISLNHSMAIM
As to B1, the binding result is on record as “binds”.
